Where a name gives a salt, the structure may show the parent alone.

This data set can be described thus: Jet milling of RPL554 salts (Sturtevant jet-mill, SEM). As to conditions: grinding pressure 60 PSI, venture pressure 80 PSI.

On to `COc1cc2c(cc1OC)-c1c/c(=N\c3c(C)cc(C)cc3C)n(CCNC(N)=O)c(=O)n1CC2` [Benzenesulfonate, RPL554 benzenesulfonate], for which the “Ease of Milling” value (listed as benzenesulfonate salt) was “Intermediate”. For `COc1cc2c(cc1OC)-c1c/c(=N\c3c(C)cc(C)cc3C)n(CCNC(N)=O)c(=O)n1CC2` [Ethane-1,2-disulfonate, RPL554 ethane-1,2-disulfonate], the “Ease of Milling” value (listed as ethane-1,2-disulfonate hemi-salt) is “Intermediate”. In the case of `COc1cc2c(cc1OC)-c1c/c(=N\c3c(C)cc(C)cc3C)n(CCNC(N)=O)c(=O)n1CC2` [Ethanesulfonate, RPL554 ethanesulfonate], the “Ease of Milling” value (listed as ethanesulfonate salt) is “Easy”. Consider `COc1cc2c(cc1OC)-c1c/c(=N\c3c(C)cc(C)cc3C)n(CCNC(N)=O)c(=O)n1CC2` [Hydrobromide, RPL554 hydrobromide], for which the “Ease of Milling” value (listed as hydrobromide salt, hydrobromide) is recorded as “Easy”. Regarding `COc1cc2c(cc1OC)-c1c/c(=N\c3c(C)cc(C)cc3C)n(CCNC(N)=O)c(=O)n1CC2` [Hydrochloride, RPL554 hydrochloride], the “Ease of Milling” value (listed as hydrochloride salt, hydrochloride) is “Easy”.

`COc1cc2c(cc1OC)-c1c/c(=N\c3c(C)cc(C)cc3C)n(CCNC(N)=O)c(=O)n1CC2` [Methanesulfonate, RPL554 methanesulfonate]: the “Ease of Milling” value (listed as mesylate salt) is “Intermediate”. On to `COc1cc2c(cc1OC)-c1c/c(=N\c3c(C)cc(C)cc3C)n(CCNC(N)=O)c(=O)n1CC2` [Sulfate, RPL554 sulfate], for which the “Ease of Milling” value (listed as sulfate salt) is “Hard”. Turning to `COc1cc2c(cc1OC)-c1c/c(=N\c3c(C)cc(C)cc3C)n(CCNC(N)=O)c(=O)n1CC2` [p-Toluenesulfonate, RPL554 p-toluenesulfonate], the “Ease of Milling” value (listed as p-toluenesulfonate salt) is reported as “Intermediate”.

The values are drawn from patent publication US11491155B2, “Salt of a pyrimido[6,1-A]isoquinolin-4-one compound” (VERONA PHARMA PLC, priority 2015, dated 2022).
